Article PMC11191887, “Abstracts From the First Annual Research Day Hosted by the Michigan State University College of Osteopathic Medicine, Novi, Michigan, May 15, 2023” (Spartan Medical Research Journal, 2024)
No constants are given. Whether binding was seen depends on the method and setting. A result given as binding can be weak or reduced; the word gives no strength. One block for each binder: values may come before it.

Protein sequences, listed by entry. Tags and fused reporters are not part of them. Lines headed by an entry give the natural chain unless they say otherwise; changes in a name come on top.
UniProt P27037: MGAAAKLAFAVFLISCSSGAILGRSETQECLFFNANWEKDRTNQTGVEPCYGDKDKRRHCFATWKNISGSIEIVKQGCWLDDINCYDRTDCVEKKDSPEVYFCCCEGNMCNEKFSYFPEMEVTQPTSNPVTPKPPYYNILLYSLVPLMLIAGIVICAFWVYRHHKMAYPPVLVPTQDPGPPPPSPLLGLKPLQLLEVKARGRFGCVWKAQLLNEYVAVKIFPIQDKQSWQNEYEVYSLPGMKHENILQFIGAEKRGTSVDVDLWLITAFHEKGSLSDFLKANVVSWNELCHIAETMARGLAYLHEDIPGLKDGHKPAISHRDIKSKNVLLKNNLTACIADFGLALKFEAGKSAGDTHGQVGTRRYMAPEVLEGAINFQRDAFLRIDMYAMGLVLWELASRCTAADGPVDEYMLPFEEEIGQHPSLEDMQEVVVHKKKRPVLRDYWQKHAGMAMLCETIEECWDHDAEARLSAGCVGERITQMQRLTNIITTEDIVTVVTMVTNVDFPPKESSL
UniProt Q13873: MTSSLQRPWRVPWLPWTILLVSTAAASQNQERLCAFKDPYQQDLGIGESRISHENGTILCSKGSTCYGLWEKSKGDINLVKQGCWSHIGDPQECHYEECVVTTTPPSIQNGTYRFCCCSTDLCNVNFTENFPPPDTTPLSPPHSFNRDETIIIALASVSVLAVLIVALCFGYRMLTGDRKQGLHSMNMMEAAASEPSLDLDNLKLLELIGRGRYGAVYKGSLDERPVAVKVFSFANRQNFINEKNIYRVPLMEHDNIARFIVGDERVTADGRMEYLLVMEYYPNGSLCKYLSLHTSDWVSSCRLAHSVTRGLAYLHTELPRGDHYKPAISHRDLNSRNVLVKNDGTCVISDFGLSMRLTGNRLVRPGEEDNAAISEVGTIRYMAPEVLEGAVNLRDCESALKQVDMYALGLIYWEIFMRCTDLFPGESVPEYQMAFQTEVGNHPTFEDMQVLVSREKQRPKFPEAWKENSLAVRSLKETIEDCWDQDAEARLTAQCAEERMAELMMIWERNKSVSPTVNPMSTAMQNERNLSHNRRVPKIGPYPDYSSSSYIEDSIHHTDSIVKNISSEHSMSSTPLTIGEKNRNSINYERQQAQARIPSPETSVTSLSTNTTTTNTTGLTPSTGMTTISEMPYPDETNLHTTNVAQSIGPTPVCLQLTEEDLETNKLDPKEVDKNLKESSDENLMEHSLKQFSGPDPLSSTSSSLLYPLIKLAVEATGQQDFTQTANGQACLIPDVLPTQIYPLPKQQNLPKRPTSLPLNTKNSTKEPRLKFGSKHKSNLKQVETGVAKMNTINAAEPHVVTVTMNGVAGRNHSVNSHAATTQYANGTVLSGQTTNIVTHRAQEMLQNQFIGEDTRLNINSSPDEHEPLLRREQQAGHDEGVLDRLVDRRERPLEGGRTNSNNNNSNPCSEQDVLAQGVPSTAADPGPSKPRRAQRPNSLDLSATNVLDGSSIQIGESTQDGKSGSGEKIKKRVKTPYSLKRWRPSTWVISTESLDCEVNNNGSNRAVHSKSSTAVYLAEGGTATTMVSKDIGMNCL
UniProt Q13705: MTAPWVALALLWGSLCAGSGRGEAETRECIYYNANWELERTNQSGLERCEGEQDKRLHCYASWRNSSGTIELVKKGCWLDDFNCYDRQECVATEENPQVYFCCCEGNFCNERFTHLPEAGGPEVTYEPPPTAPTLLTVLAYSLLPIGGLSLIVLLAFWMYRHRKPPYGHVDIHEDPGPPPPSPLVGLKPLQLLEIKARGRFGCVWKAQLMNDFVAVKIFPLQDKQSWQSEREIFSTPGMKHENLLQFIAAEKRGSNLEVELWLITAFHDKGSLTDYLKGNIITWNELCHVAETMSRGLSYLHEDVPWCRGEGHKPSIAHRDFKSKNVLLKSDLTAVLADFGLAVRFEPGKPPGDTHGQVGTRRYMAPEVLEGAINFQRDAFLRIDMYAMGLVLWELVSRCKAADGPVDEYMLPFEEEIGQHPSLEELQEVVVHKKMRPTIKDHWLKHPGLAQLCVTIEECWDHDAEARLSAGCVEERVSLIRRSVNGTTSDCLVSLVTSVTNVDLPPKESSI

How the values were obtained:
Experiment in all cases: SPR; receptor-growth factor interaction; both purified
ActRIIA = ActRIIA (UniProt P27037)
BMPR2 = BMPR2 (UniProt Q13873)
ActRIIB = ActRIIB (UniProt Q13705)

- binding (ActRIIA): binds
- binding (BMPR2): binds
B1: BMP9 (ligand, UniProt Q9UK05 320-429)
chain: SAGAGSHCQKTSLRVNFEDIGWDSWIIAPKEYEAYECKGGCFFPLADDVTPTKHAIVQTLVHLKFPTKVGKACCVPTKLSPISVLYKDDMGVPTLKYHYEGMSVAECGCR

- binding (ActRIIB): binds
- binding (ActRIIA): binds
- binding (BMPR2): binds
B2: BMP10 (ligand, UniProt O95393 317-424)
chain: NAKGNYCKRTPLYIDFKEIGWDSWIIAPPGYEAYECRGVCNYPLAEHLTPTKHAIIQALVHLKNSQKASKACCVPTKLEPISILYLDKGVVTYKFKYEGMAVSECGCR
